Measured values from ChEMBL document CHEMBL4495565, “Cytopathic SARS-Cov2 screening on VERO-E6 cells in a large repurposing effort” (2020).
Structures can show the parent of a compound that is named as a salt.

Test system: SARS-CoV-2
Assay: microbe, parasite or virus in culture
Assay type: functional, organism-based, Chlorocebus sabaeus
Conditions: Severe acute respiratory syndrome coronavirus 2, Vero C1008, 48 h

## CCN(CC)CCOc1ccc(C(=C(Cl)c2ccccc2)c2ccccc2)cc1 [CLOMIPHENE CITRATE]
  IC50: 13.6 µM

## CN(C)C(=O)C(CCN1CCC(O)(c2ccc(Cl)cc2)CC1)(c1ccccc1)c1ccccc1 [LOPERAMIDE]
  IC50: 17.2 µM
